The text below walks through data of paper PMC5431889, “Stapled BIG3 helical peptide ERAP potentiates anti-tumour activity for breast cancer therapeutics” (Scientific Reports, 2017).

The chains behind the UniProt entries cited, without tags or fusion partners.
UniProt Q99623: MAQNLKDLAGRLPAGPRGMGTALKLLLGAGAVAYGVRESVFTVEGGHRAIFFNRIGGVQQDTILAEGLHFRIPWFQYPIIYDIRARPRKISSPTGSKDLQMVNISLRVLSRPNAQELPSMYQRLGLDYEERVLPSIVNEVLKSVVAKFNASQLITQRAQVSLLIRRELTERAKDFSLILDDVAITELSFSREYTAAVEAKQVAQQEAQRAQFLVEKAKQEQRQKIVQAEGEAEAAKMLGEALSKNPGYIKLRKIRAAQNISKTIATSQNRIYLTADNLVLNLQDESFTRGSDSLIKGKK

No constants are given. Whether binding was seen depends on the method and setting. In cells and extracts the contact can be indirect. Some binding calls cover weakened binding; strength is not graded here.

This assay addresses prohibitin 2 (human (endogenous in MCF-7 and KPL-3C)) (UniProt Q99623). Kind of assay: co-IP; same co-IP as a2, read as displacement: synthetic peptide added to MCF-7 cells, loss of PHB2 from anti-BIG3 immunoprecipitates; only the binder purified.

B1: ERα activity-regulator synthetic peptide (native ERAP; 11R-GGG-QMLSDLTLQLRQR) (peptide)
peptide: RRRRRRRRRRRGGGQMLSDLTLQLRQR
notes: membrane-permeable polyarginine (11R) and GGG linker, printed as 11R-GGG; also called unstapled original ERAP; dominant-negative peptide; source: synthetic peptide
Take B1: the binding result is “binds”.
